Reference: the supplement of paper PMC12823440, “Inhibitors supercharge kinase turnover through native proteolytic circuits” (Nature, 2025)
Counter-ions that a name gives are not always drawn. The list shows a part of the results. The calls rarely recur for the same compound in another form.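 Kinases, fused to nanoluciferase, were expressed in K562 cells; luminescence was measured every 4 h from 2 to 18 h as percent of control (DMSO = 100%, positive control = 0%). A time point is decreased if signal falls significantly (2 sigma). Hits were called by the authors by a rule that is not shown; the count of time points alone does not decide it.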

The chains behind the UniProt entries cited, without tags or fusion partners.
UniProt Q14289, whole entry, looked up: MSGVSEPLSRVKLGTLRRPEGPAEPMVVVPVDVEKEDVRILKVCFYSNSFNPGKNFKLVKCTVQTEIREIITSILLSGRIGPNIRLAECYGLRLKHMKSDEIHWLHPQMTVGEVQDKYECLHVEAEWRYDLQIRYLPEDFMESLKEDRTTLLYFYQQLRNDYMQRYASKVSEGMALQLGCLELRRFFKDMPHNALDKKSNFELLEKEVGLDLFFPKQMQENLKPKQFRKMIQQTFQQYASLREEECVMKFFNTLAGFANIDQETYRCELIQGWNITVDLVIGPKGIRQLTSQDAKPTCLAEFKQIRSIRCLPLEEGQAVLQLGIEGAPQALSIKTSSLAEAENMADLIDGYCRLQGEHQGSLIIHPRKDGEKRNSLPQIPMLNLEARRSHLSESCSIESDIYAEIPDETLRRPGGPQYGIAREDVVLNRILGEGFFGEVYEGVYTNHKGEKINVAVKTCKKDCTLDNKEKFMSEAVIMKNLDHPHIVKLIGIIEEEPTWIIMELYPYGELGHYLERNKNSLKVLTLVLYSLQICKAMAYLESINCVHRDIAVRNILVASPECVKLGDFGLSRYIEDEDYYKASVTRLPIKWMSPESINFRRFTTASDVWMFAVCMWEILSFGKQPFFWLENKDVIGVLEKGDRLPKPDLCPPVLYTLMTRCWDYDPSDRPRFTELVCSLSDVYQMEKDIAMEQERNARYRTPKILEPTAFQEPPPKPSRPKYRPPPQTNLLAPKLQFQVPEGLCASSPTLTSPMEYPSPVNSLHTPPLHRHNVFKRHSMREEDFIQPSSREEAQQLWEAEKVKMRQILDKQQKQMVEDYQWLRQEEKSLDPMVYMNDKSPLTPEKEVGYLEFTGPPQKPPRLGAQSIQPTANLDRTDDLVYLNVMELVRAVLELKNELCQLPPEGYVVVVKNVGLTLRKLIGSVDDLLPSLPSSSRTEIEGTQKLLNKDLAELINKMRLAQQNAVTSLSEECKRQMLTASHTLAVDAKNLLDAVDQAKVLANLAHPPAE

What follows are compounds tested against PTK2B (UniProt Q14289) (assay: number of time points (of 5) at which kinase-Nluc abundance scored as decreased, DMSO-normalised (count); higher = more persistent destabilization). Details: K562; 2-18 h.

Compound | number of time points
CNc1nc(Nc2ccc(C(=O)N3CCOCC3)cc2OC)ncc1Cl (2.5 µM) | 0
CCN(CC)c1ccc2cc(-c3nc4cc(C)ccc4o3)c(=O)oc2c1 (10 µM) | 0
COc1ccccc1C(=O)/C=C/c1ccccc1C(=O)O (10 µM) | 0
CC(=O)N1CCC(c2cc(-c3ccc(NC(=O)c4cccn(-c5ccc(F)cc5)c4=O)cc3F)c3c(N)ncnn23)CC1 (0.5 µM) | 0
O[C@@H]1CO[C@H]2[C@@H]1OC[C@H]2Oc1nc2nc(-c3ccc(-c4ccccc4)cc3)c(Cl)cc2[nH]1 (10 µM) | 0

The compounds below were run against RAF1 (UniProt P04049) in the same assay as above. Details: K562; 2-18 h.

Compound | number of time points
C[C@@H]1COCCN1c1nc(-c2cnc(N)cc2C(F)F)nc(N2[C@H](C)COC[C@@H]2C)n1 (2.5 µM) | 0
O=C(O)c1cc(=O)c2c(OCC(O)COc3cccc4oc(C(=O)O)cc(=O)c34)cccc2o1 [Cromolyn (sodium)] (10 µM) | 0
CCc1ccc(OCC(=O)Nc2ccc(F)c([N+](=O)[O-])c2)cc1 (10 µM) | 0
CC(C)S(=O)(=O)c1ccc2nccc(Nc3ccc4scnc4c3)c2c1 (10 µM) | 0
CN1CC[C@@H](c2c(O)cc(O)c3c(=O)cc(-c4ccc(C(F)(F)F)cc4Cl)oc23)[C@@H]1CO [Voruciclib (hydrochloride)] (10 µM) | 0
CC(C)=CC(=O)O[C@H]1Cc2cc3ccc(=O)oc3cc2OC1(C)C [Decursin] (10 µM) | 0
CC(C)C[C@@H](C(=O)Nc1ccn(C[C@@H](O)CO)n1)N1CC(Oc2ccccc2Cl)=CC1=O [Dorzagliatin] (10 µM) | 0
CC(C)N1CCN(c2ccc(Nc3ncc4cc5n(c4n3)C3(CCCCC3)CNC5=O)nc2)CC1 [Lerociclib (dihydrochloride)] (2 µM) | 0
CCCCCCCCCCCCCCCCOP(=O)([O-])OCC[N+](C)(C)C [Miltefosine] (10 µM) | 0
COCCNc1cc(NC(=O)N2CCCc3cc(CN4CCN(C)CC4=O)c(C=O)nc32)ncc1C#N [Roblitinib] (10 µM) | 0
Cc1ccc(NC(=O)c2ccc(CN(CCN(C)C)C(=O)c3cccnc3)cc2)cc1Nc1nccc(-c2cccnc2)n1 [PDGFRα kinase inhibitor 1] (10 µM) | 0
c1ccc(-c2nc(=NCCN3CCOCC3)sn2-c2ccccc2)cc1 [VP3.15 (dihydrobromide)] (10 µM) | 0
O=C1NC(=Nc2c(Cl)cccc2Cl)S/C1=C\c1ccc2nccnc2c1 (2.5 µM) | 0
Cc1cc(-c2ccnc(Nc3cnn(C)c3)n2)ccc1CNC(=O)N1CC(OC(C)C)C1 (10 µM) | 0
CN(C)S(=O)(=O)c1ccc2c(c1)/C(=C/c1cc3c([nH]1)CCCC3)C(=O)N2 (2.5 µM) | 0
Cc1cnc(NC2CCOCC2)nc1-n1cnc(C(=O)N[C@H](CN)c2cc(F)cc(Cl)c2)c1 (10 µM) | 0
N#CC(c1ccnc(OCc2ccc(CN3CCOCC3)cc2)n1)c1nc2ccccc2s1 (stereo not drawn) [Bentamapimod] (2.5 µM) | 0
Cc1c(-c2ccc(C(N)=O)c3[nH]c4cc(C(C)(C)O)ccc4c23)cccc1-n1cnc2ccccc2c1=O (2.5 µM) | 0
CN(C)c1nc2c(Br)c(Br)c(Br)c(Br)c2[nH]1 (10 µM) | 0
Nc1ncnc2c1c(-c1ccc(Oc3ccccc3)cc1)nn2C1CCN(CCOCCOCCOc2ccc3c(c2)CN(C2CCC(=O)NC2=O)C3=O)CC1 (stereo not drawn) (2.5 µM) | 0
O=[N+]([O-])c1ccc(Nc2nc(N3CCOCC3)nc(N3CCOCC3)n2)cc1 (10 µM) | 0
C[C@H](Nc1ncnc2[nH]cnc12)c1cc2ccc(F)cc2nc1-c1ccccn1 (10 µM) | 0
CCc1cccc(CC)c1NC(=O)N1Cc2[nH]nc(NC(=O)c3ccc(N4CCN(C)CC4)cc3)c2C1 (2.5 µM) | 2
CCc1cncnc1N1CCN(Cc2nc3ccc(C(F)(F)F)cc3[nH]2)CC1 (10 µM) | 0
COc1cc(-c2cn[nH]c2)ccc1C(=O)Nc1ccc2c(c1)CCNCC2 (10 µM) | 0
Cn1cc2cc(C(F)(F)c3nnc4ccc(-c5cnn(C6CC6)c5)nn34)c(F)cc2n1 [Bozitinib] (10 µM) | 0
O=Nc1c2[nH]c3ccccc3nc-2c2ccccc12 [IQ-1S (free acid)] (2.5 µM) | 0
CCN(CC)c1cc2oc(=O)c(-c3nc4ccccc4o3)cc2cc1C (2.5 µM) | 0

Part of the list above, set out differently.

| Compound | number of time points |
| --- | --- |
| N#CC(c1ccnc(OCc2ccc(CN3CCOCC3)cc2)n1)c1nc2ccccc2s1 (stereo not drawn) [Bentamapimod] (2.5 µM) | 0 |
| C[C@H](Nc1ncnc2[nH]cnc12)c1cc2ccc(F)cc2nc1-c1ccccn1 (10 µM) | 0 |
